Data as given in patent US10993983B2, “Cyclic peptide epitopes and small-molecule mimics for inducing autophagy” (TRUSTEES OF TUFTS COLLEGE, priority 2016, dated 2021).
Not every detail of the peptide structures is certain; ends, links or a residue may be inferred. Some results were stated once for a whole list of compounds, not compound by compound. *1 amine or outer side, *2 acyl side, *3 side chain or, on linkers, in order; H or OH if unused. Where a SMILES comes first, the peptide text is derived from it. Bridges are numbered along the chain shown (N, C = ends). [ ]: non-standard residue; d: D form. The star is where a group is joined. NH(CH2CH2O)2(CH2)6Cl = ClCCCCCCOCCOCCN*; oXylylene = c1ccc(C[*:2])c(C[*:1])c1; Suc = O=C(CCC(=O)[*:2])[*:1]

System: HeLa cells
Test: Autophagy induction judged by p62 and LC3 immunoblots together
Format: cell-based
Settings: for concentration at which autophagy induction (p62 degradation and LC3 lipidation) was observed: immunoblot, 3 hour treatment
Method: This 10-mer sequence was substituted with various thiol-containing amino acids at various positions, and then cross-linked with various linkers as described above (FIG. 5, a and FIG. 6).
Cells were treated with peptide in OPTI-MEM (Thermo Scientific) acidified with 0.15% (v/v) 6N HCl for 3 hour. Cells were rinsed with Dulbecco's phosphate buffered saline (PBS) and lysed in lysis buffer (20 mM HEPES, 150 mM NaCl, 1 mM EDTA, 1% Triton X-100, protease inhibitor cocktail (Roche) on ice for 1 hour. Cell lysates were centrifuged at 16,000 g for 10 min at 4° C. and analyzed by SDS-PAGE and transferred to PVDF membranes. The membranes were blocked 5% non-fat dry milk (NFDM) in PBST (PBS+0.05% Tween-20) for 1 hour, then incubated overnight at 4° C. with primary antibody in 5% NFDM in PBST. The blots were washed with PBST and incubated with HRP-conjugated secondary antibodies diluted in 5% NFDM in PBST for 1 hour at room temperature. Membranes were washed with PBST and visualized with SuperSignal West Pico Chemiluminescent Substrate (Thermo Scientific). Semi-quantitative results were obtained by noting the lowest concentration at which both p62 degradation and LC3-I to LC3-II conversion were observed.
(SEQ ID NO: 16)-Sequence. […] The N-terminus was capped with an acetyl group while the C terminus was capped with a —C(O)—NH2 group. The activity reported is a summation of results from both the p62 degradation assay and the LC3 marker assay.

| Compound | concentration at which autophagy induction (p62 degradation and LC3 lipidation) was observed [µM] | autophagy induction, result in words (p62 and LC3 immunoblots) |
| --- | --- | --- |
| CC[C@H](C)[C@H](NC(=O)[C@H](Cc1c[nH]cn1)NC(=O)[C@H](Cc1ccccc1)NC(=O)[C@H]1CSCc2ccccc2CSC[C@@H](NC(=O)[C@@H](NC(=O)CCC(=O)NCCOCCOCCCCCCCl)C(C)C)C(=O)N[C@@H](CC(N)=O)C(=O)N[C@@H](C)C(=O)N1)C(=O)N[C@@H](Cc1c[nH]c2ccccc12)C(=O)N[C@@H](Cc1c[nH]cn1)C(N)=O [HTag-DD5-o, (HTag)-VcNAcFHIWH] ({NH(CH2CH2O)2(CH2)6Cl-Suc}-V[dC]NA[dC]FHIWH-NH2; linker 2-5 via oXylylene) | 20 | increased autophagy similarly to the original DD5-o |
| VCNACFHIWH [Compound 3] | 50 to 100 |  |
| VCNATCHIWH [Compound 1] | 50 to 100 |  |
| VCNATCHIWH [Compound 2] | 50 to 100 |  |
